± gives the uncertainty stated by the source. Many entries were measured with a wide error.
Experiment: self-splicing fitness, log relative to wild type (ln ratio); higher = more splicing; Tetrahymena group I intron in knt gene, E. coli kanamycin selection, DiMSum; sequences stand for … in CUCUCU…GGAGGGAAAAGUUAUCAGGCAUGCACCUGGUAGCUAGUCUUUAAACCAAUAGAUUGCAUCGGUUUAAAAGGCAAGACCGUCAAAUUGCGGGAAAGGGGUCAACAGCCGUUCAGUACCAAGUCUCAGGGGAAACUUUGAGAUGGCCUUGCAAAGGGUAUGGUAAUAAGCUGACGGACAUGGUCCUAACCACGCAGCCAAGUCCUAAGUCAACAGAUCUUCUGUUGAUAUGGAUGCAGUUCACAGACUAAAUGUCGGUCGGGGAAGAUGUAUUCUUCUCAUAAGAUAUAGUCGGACCUCUCCUUAAUGGGAGCUAGCGGAUGAAGUGAUGCAACACUGGAGCCGCUGGGAACUAAUUUGUAUGCGAAAGUAUAUUGAUUAGUUUUGGAGUACUCGUGGUCG
Outline: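 Six replicate transformations of E. coli BL21(DE3) with a pET-22b(+) library were grown overnight at 37°C or 30°C. The library randomised all eight P1ex-region intron nucleotides, the intron lying in the knt kanamycin-resistance gene, and plates were LB agar with or without 25 μg/mL kanamycin plus 100 μg/mL carbenicillin, 50 μM IPTG and 0.2% rhamnose. Pooled colonies were amplicon-sequenced on an Illumina HiSeq 2500, and fitness is the DiMSum error-weighted combination of wild-type-normalised replicate fold changes, kanamycin versus none.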

| Sequence | self-splicing fitness (ln) (37 °C) | self-splicing fitness (ln) (30 °C) |
| --- | --- | --- |
| CUCGAGCAAUAUUACGUGCC | -3.14 ± 0.53 | – |
| UAGCAGCAAUAUUACGAGGC | – | -4.96 ± 0.51 |
| UGGAAGCAAUAUUACGUUAC | -2.73 ± 0.62 | -3.16 ± 1 |
| UAGGAGCAAUAUUACGCUUC | -3.22 ± 0.52 | – |
| AAAUAGCAAUAUUACGAUAA | -0.658 ± 0.13 | -1.51 ± 0.12 |
| CUGUAGCAAUAUUACGGCGA | -3.91 ± 0.59 | -3.7 ± 1 |
| UUUUAGCAAUAUUACGGUUC | -2.17 ± 0.56 | -2.44 ± 1.1 |
| UUCCAGCAAUAUUACGAAGU | – | -4.22 ± 0.59 |
| CAUUAGCAAUAUUACGAGAA | -1.53 ± 0.52 | -2.62 ± 1.1 |
| UUUUAGCAAUAUUACGUACA | -0.143 ± 0.2 | -2.16 ± 0.15 |
| GGCAAGCAAUAUUACGCCCA | -0.268 ± 0.12 | -1.95 ± 0.15 |
| GAGUAGCAAUAUUACGGGGG | – | -4.36 ± 1 |
| CGAUAGCAAUAUUACGGGCU | – | -4.87 ± 0.59 |
| UCGUAGCAAUAUUACGAAAC | – | -3.94 ± 0.51 |
| UCCUAGCAAUAUUACGGCAC | – | -4.97 ± 0.72 |
| UGAGAGCAAUAUUACGGCGC | -2.04 ± 0.65 | -1.32 ± 0.71 |
| GCGUAGCAAUAUUACGAGCC | -2.44 ± 0.77 | – |
| GAAGAGCAAUAUUACGCUGA | – | -4.44 ± 0.74 |
| UGCGAGCAAUAUUACGGAAG | – | -4.67 ± 0.51 |
| CAGGAGCAAUAUUACGUCAU | – | -4.19 ± 1 |
| GUGGAGCAAUAUUACGGGGG | -2.6 ± 0.61 | – |
| CAGAAGCAAUAUUACGAUAC | – | -4.19 ± 0.51 |
| UAAGAGCAAUAUUACGUUGA | – | -2.94 ± 0.53 |
| UCUUAGCAAUAUUACGCCGC | -1 ± 0.5 | -2.88 ± 0.67 |
| CUAUAGCAAUAUUACGAAGA | -3.36 ± 0.52 | – |

Given as labelled records: entries from further up
UAGCAGCAAUAUUACGAGGC
  self-splicing fitness (ln) (30 °C): -4.96 ± 0.51
CUGUAGCAAUAUUACGGCGA
  self-splicing fitness (ln) (37 °C): -3.91 ± 0.59
  self-splicing fitness (ln) (30 °C): -3.7 ± 1
UUUUAGCAAUAUUACGUACA
  self-splicing fitness (ln) (37 °C): -0.143 ± 0.2
  self-splicing fitness (ln) (30 °C): -2.16 ± 0.15
CGAUAGCAAUAUUACGGGCU
  self-splicing fitness (ln) (30 °C): -4.87 ± 0.59

(further entries)

| Sequence | self-splicing fitness (ln) (37 °C) | self-splicing fitness (ln) (30 °C) |
| --- | --- | --- |
| AUACAGCAAUAUUACGGACU | 0.141 ± 0.09 | -0.732 ± 0.06 |
| CUCUAGCAAUAUUACGCCAG | -1.87 ± 0.57 | – |
| CACGAGCAAUAUUACGGUAA | – | -4.44 ± 0.59 |
| CUCUAGCAAUAUUACGACAC | – | -3.7 ± 1.1 |
| UAAGAGCAAUAUUACGGACU | – | -3.72 ± 1 |
| AUCGAGCAAUAUUACGAUCA | – | -2.01 ± 0.54 |
| CUGUAGCAAUAUUACGGAAA | -3.3 ± 0.52 | – |
| ACGCAGCAAUAUUACGGUGC | -3.95 ± 0.72 | – |
| UUCCAGCAAUAUUACGCCAC | – | -3.73 ± 0.61 |
| UUGGAGCAAUAUUACGGCCC | -1.9 ± 0.69 | – |
| AGAUAGCAAUAUUACGCAUG | -0.884 ± 0.14 | -1.58 ± 0.14 |
| UGAGAGCAAUAUUACGUCUC | -1.39 ± 0.87 | – |
| GGGGAGCAAUAUUACGGCUU | -1.77 ± 0.67 | -3.73 ± 0.6 |
| AGCGAGCAAUAUUACGGAGC | – | -2.42 ± 1.2 |
| GUGGAGCAAUAUUACGCUCU | -1.69 ± 0.82 | -3.34 ± 1.1 |
| UUUUAGCAAUAUUACGAACC | -0.656 ± 0.82 | -1.09 ± 0.61 |
| GGGGAGCAAUAUUACGUUGU | – | -3.46 ± 0.53 |
| UAUCAGCAAUAUUACGGGCC | – | -4.45 ± 0.51 |
| GAAGAGCAAUAUUACGCCAA | – | -2.51 ± 0.55 |
| UCUAAGCAAUAUUACGGCCU | -2.9 ± 0.53 | – |
| UUUCAGCAAUAUUACGGCAU | -1.08 ± 0.19 | -1.87 ± 0.16 |
| CACUAGCAAUAUUACGCGUG | -3.12 ± 0.25 | -3.99 ± 0.21 |
| UUUGAGCAAUAUUACGCUGC | -2.3 ± 1.1 | – |
| CUUGAGCAAUAUUACGGUAA | – | -3.57 ± 0.73 |
| CAUGAGCAAUAUUACGCCCA | -2.71 ± 0.76 | – |

| Sequence | self-splicing fitness (ln) (37 °C) | self-splicing fitness (ln) (30 °C) |
| --- | --- | --- |
| CCCUAGCAAUAUUACGAAUG | -3.61 ± 0.73 | – |
| UCCUAGCAAUAUUACGCAAG | -3.09 ± 0.6 | -2.07 ± 0.66 |
| GUGGAGCAAUAUUACGAUGG | – | -4.99 ± 0.71 |
| CCGGAGCAAUAUUACGCAUA | -2.05 ± 0.5 | -2.87 ± 1.1 |
| UAGUAGCAAUAUUACGAAGG | – | -0.962 ± 0.83 |
| ACUGAGCAAUAUUACGCGUA | -3.16 ± 0.28 | -1.8 ± 0.15 |
| CAAGAGCAAUAUUACGAAAC | -2.54 ± 0.76 | – |
| AGAGAGCAAUAUUACGAUAA | – | -2.53 ± 0.77 |
| UCGUAGCAAUAUUACGCGGC | – | -3.47 ± 1 |
| AUGGAGCAAUAUUACGACGA | – | -1.15 ± 0.61 |
| GCUAAGCAAUAUUACGCUCC | -1.07 ± 0.18 | -1.01 ± 0.13 |
| CCCGAGCAAUAUUACGCCCG | -1.41 ± 0.65 | -3.18 ± 0.65 |
| CAGGAGCAAUAUUACGUCUG | -3.26 ± 0.6 | – |
| GUAGAGCAAUAUUACGGCAG | -1.98 ± 0.57 | -2.86 ± 0.62 |
| CGGAAGCAAUAUUACGAACC | – | -0.987 ± 0.51 |
| CUAUAGCAAUAUUACGAAAA | – | -4.1 ± 0.73 |
| UAUGAGCAAUAUUACGACAC | – | -2.37 ± 0.64 |
| GUUUAGCAAUAUUACGUCGC | -0.462 ± 0.18 | -1.67 ± 0.16 |
| UCGGAGCAAUAUUACGCAGA | – | -4.45 ± 0.59 |
| AUUGAGCAAUAUUACGUACC | – | -2.71 ± 0.79 |
| GGAAAGCAAUAUUACGGCUC | 0.018 ± 0.16 | -0.254 ± 0.13 |
| CCUCAGCAAUAUUACGCCGC | -3.19 ± 0.52 | – |
| GACAAGCAAUAUUACGCCAG | -2.87 ± 0.53 | – |
| GAUAAGCAAUAUUACGCGAU | – | -5.18 ± 1 |
| GUACAGCAAUAUUACGCCAC | -1.73 ± 0.64 | – |

| Sequence | self-splicing fitness (ln) (37 °C) | self-splicing fitness (ln) (30 °C) |
| --- | --- | --- |
| GGUGAGCAAUAUUACGUUAC | -0.718 ± 0.24 | -3.12 ± 0.47 |
| CAUCAGCAAUAUUACGAAAA | – | -4.02 ± 0.52 |
| CAGGAGCAAUAUUACGAUCU | – | -2.93 ± 0.63 |
| CUGUAGCAAUAUUACGGCAC | -0.693 ± 0.58 | -1.7 ± 0.5 |
| UGGUAGCAAUAUUACGGCUG | -0.886 ± 0.26 | -1.99 ± 0.15 |
| UGUGAGCAAUAUUACGCUCC | -0.466 ± 0.78 | – |
| GGCGAGCAAUAUUACGAGAA | – | -4.04 ± 1.1 |
| CAAUAGCAAUAUUACGCCCC | -0.414 ± 0.68 | – |
| ACGGAGCAAUAUUACGAUGU | -2.52 ± 0.27 | -3.19 ± 0.2 |
| CUGGAGCAAUAUUACGCUAA | -2.76 ± 0.62 | -4.8 ± 1 |
| ACCGAGCAAUAUUACGUGCC | -1.39 ± 0.69 | -3.24 ± 0.6 |
| UUCCAGCAAUAUUACGCCCC | -0.731 ± 0.56 | – |
| AUCUAGCAAUAUUACGAUCU | 0.148 ± 0.15 | -1.03 ± 0.13 |
| CCAGAGCAAUAUUACGAGAG | -1.39 ± 0.23 | -2.95 ± 0.21 |
| CUAUAGCAAUAUUACGCGCC | -0.96 ± 0.68 | – |
| CUUGAGCAAUAUUACGCAUA | -1.57 ± 0.51 | – |
| GGAGAGCAAUAUUACGCACG | – | -4.03 ± 0.52 |
| GUGCAGCAAUAUUACGACGG | – | -5.12 ± 1 |
| AUAUAGCAAUAUUACGCUAC | -2.01 ± 0.65 | – |
| GUCGAGCAAUAUUACGUGCC | -1.58 ± 0.88 | – |
| CAUAAGCAAUAUUACGUCUA | -1.4 ± 0.11 | -2.41 ± 0.14 |
| CGACAGCAAUAUUACGUACU | -0.578 ± 0.089 | -1.26 ± 0.082 |
| GAAUAGCAAUAUUACGCAUG | -0.902 ± 0.091 | -0.0618 ± 0.089 |
| CUUGAGCAAUAUUACGAGCU | -2.69 ± 0.76 | – |
| AUUGAGCAAUAUUACGUCGU | -1.69 ± 0.17 | -1.59 ± 0.15 |

| Sequence | self-splicing fitness (ln) (37 °C) | self-splicing fitness (ln) (30 °C) |
| --- | --- | --- |
| GAAGAGCAAUAUUACGGGUC | -2.96 ± 0.53 | – |
| UUUAAGCAAUAUUACGGUAG | -0.971 ± 0.21 | -0.741 ± 0.17 |
| GUGCAGCAAUAUUACGGAAA | – | -3.4 ± 0.53 |
| CCAGAGCAAUAUUACGGCUC | -2.76 ± 0.26 | -2.69 ± 0.23 |
| CUUCAGCAAUAUUACGCACU | -2.85 ± 0.62 | – |
| GUUUAGCAAUAUUACGUGGU | – | -3.77 ± 0.59 |
| AGAGAGCAAUAUUACGUUUU | -4.72 ± 1 | – |
| CUAUAGCAAUAUUACGGACC | – | -3.19 ± 0.61 |
| CGUCAGCAAUAUUACGCAGG | -1.69 ± 0.18 | -3.85 ± 0.3 |
| AUUAAGCAAUAUUACGAGGG | – | -4.25 ± 0.51 |
| AUCAAGCAAUAUUACGUACC | -0.953 ± 0.17 | -0.82 ± 0.12 |
| GUCUAGCAAUAUUACGUCUA | -1.22 ± 0.16 | -1.33 ± 0.23 |
| CCGGAGCAAUAUUACGGCUA | – | -2.79 ± 1.2 |
| UCUUAGCAAUAUUACGUGCC | – | -2.02 ± 0.9 |
| UUCUAGCAAUAUUACGCGCU | – | -2.95 ± 1.1 |
| GUAUAGCAAUAUUACGCGCC | -1.67 ± 0.67 | -2.2 ± 0.67 |
| UUCGAGCAAUAUUACGCAAC | -3.64 ± 1 | – |
| UACAAGCAAUAUUACGAACC | -0.357 ± 0.23 | -3.39 ± 0.56 |
| CAUGAGCAAUAUUACGCAAU | -4.06 ± 0.51 | – |
| UUGGAGCAAUAUUACGCAUU | -2.83 ± 0.61 | – |
| GAGUAGCAAUAUUACGAUCU | -0.479 ± 0.16 | -1.59 ± 0.18 |

Source: the supplement of paper PMC7877785
